Some entries share one result that the patent states for a list of compounds.
Legend:
KRas G12D mutant = target: T1, KRas G12D mutant (Homo sapiens, UniProt P01116, G12D); assay: PANC-1 Cellular Active RAS GTPase ELISA (KRas G12D Mutation); format: cell-based; conditions: PANC-1 vs MKN-45 Cellular Active RAS GTPase ELISA
T1 construct: host or cells: PANC-1 human pancreatic ductal adenocarcinoma cells

KRAS G12V = target: T2, KRAS G12V (Homo sapiens, UniProt P01116, G12V); assay: Cellular Phospho-ERK AlphaLISA assay, SW620 cells; format: cell-based; conditions: SW620 vs MEF-NRAS or MEF-HRAS Phospho-ERK AlphaLISA
T2 construct: endogenous in cells; host or cells: SW620 human colorectal cancer cells

In the case of `C[C@@H](O)CN1CC2CCC(C1)N2c1nc(OCC2(CN3CC4C(C3)C4(F)F)CC2)nc2c(F)c(-c3ncc(F)c4sc(N)c(C#N)c34)c3c(c12)COC3` (stereo partly drawn) [Example 12, 2-Amino-4-(3-((1-((6,6-difluoro-3-azabicyclo[3.1.0]hexan-3-yl)methyl)cyclopropyl)meth-oxy)-5-fluoro-1-(3-((R)-2-hydroxypropyl)-3,8-diazabicyclo[3.2.1]octan-8-yl)-7,9-dihydrofuro[3,4-f]quinazolin-6-yl)-7-fluorothieno[3,2-c]pyridine-3-carbonitrile], the “selective inhibition preference for KRas G12D mutant over KRas wild-type” value (KRas G12D mutant) is reported as “greater than 10 fold”.
`N#Cc1c(N)sc2c(F)cnc(-c3c4c(c5c(N6C7CCC6CN(CCCO)C7)nc(OCC6(CN7CCOCC7)CC6)nc5c3F)COC4)c12` [Example 2, 2-Amino-7-fluoro-4-(5-fluoro-1-(3-(3-hydroxypropyl)-3,8-diazabicyclo[3.2.1]octan-8-yl)-3-((1-(morpholinomethyl)cyclo-propyl)methoxy)-7,9-dihydrofuro[3,4-f]quinazolin-6-yl)thieno[3,2-c]pyridine-3-carbonitrile] was tested, and the “selective inhibition preference for KRas G12D mutant over KRas wild-type” value (KRas G12D mutant) was “greater than 10 fold”.
In the case of `C[C@@H](O)CN1CC2CCC(C1)N2c1nc(OCC2(CN3C[C@@H]4C[C@H]3CO4)CC2)nc2c(F)c(-c3ncc(F)c4sc(N)c(C#N)c34)c3c(c12)COC3` [Example 17, 4-(3-((1-(((1S,4S)-2-Oxa-5-azabicyclo[2.2.1]heptan-5-yl)methyl)cyclopropyl)meth-oxy)-5-fluoro-1-(3-((R)-2-hydroxypropyl)-3,8-diazabicyclo[3.2.1]octan-8-yl)-7,9-dihydrofuro[3,4-f]quinazolin-6-yl)-2-amino-7-fluorothieno[3,2-c]pyridine-3-carbonitrile], the “selective inhibition preference for KRas G12D mutant over KRas wild-type” value (KRas G12D mutant) is reported as “greater than 10 fold”.
With `CN(C)[C@@H]1CN(c2ncc3c4c(c(-c5ncc(F)c6sc(N)c(C#N)c56)c(Cl)c3n2)COC4)C[C@@H]1O.O=CO` (single isomer, unassigned; atropisomer 2) [Example 67C] the “selective inhibition preference for KRas G12V mutant over HRAS and NRAS” value (KRAS G12V) was “greater than 10 fold”.
For `N#Cc1c(N)sc2ccc(F)c(-c3c4c(c5c(N6C7CCC6CN(CCCO)C7)nc(OCC6(CN7CCOCC7)CC6)nc5c3F)COC4)c12` (single isomer, unassigned; isomer 1) [Example 3, 2-Ammino-5-fluoro-4-(5-fluoro-1-(3-(3-hydroxypropyl)-3,8-diazabicyclo[3.2.1]octan-8-yl)-3-((1-(morpholinomethyl)cyclo-propyl)methoxy)-7,9-dihydrofuro[3,4-f]quinazolin-6-yl)benzo[b]thiophene-3-carbonitrile, Isomer 1], the “selective inhibition preference for KRas G12D mutant over KRas wild-type” value (KRas G12D mutant) was “greater than 10 fold”.
`C[C@@H](O)CN1CC2CCC(C1)N2c1nc(OCC2(CN3CCOCC3)CC2)nc2c(F)c(-c3c(F)ccc4sc(N)c(C#N)c34)c3c(c12)COC3` [Example 5, 2-Amino-5-fluoro-4-(5-fluoro-1-(3-((R)-2-hydroxypropyl)-3,8-diazabicyclo[3.2.1]octan-8-yl)-3-((1-(morpholinomethyl)cyclo-propyl)methoxy)-7,9-dihydrofuro[3,4-f]quinazolin-6-yl)benzo[b]thiophene-3-carbonitrile] was tested, and the “selective inhibition preference for KRas G12D mutant over KRas wild-type” value (KRas G12D mutant) was “greater than 10 fold”.
For `COCCN1CC2CCC(C1)N2c1nc(OCC2(CN3CC(OC)C3)CC2)nc2c(F)c(-c3ncc(F)c4sc(N)c(C#N)c34)c3c(c12)COC3` [Example 13, 2-Amino-7-fluoro-4-(5-fluoro-3-((1-((3-methoxyazetidin-1-yl)methyl)cyclopropyl)meth-oxy)-1-(3-(2-methoxyethyl)-3,8-diazabicyclo[3.2.1]octan-8-yl)-7,9-dihydrofuro[3,4-f]quinazolin-6-yl)thieno[3,2-c]pyridine-3-carbonitrile], the “selective inhibition preference for KRas G12D mutant over KRas wild-type” value (KRas G12D mutant) was “greater than 10 fold”.
`C[C@@H](O)CN1CC2CCC(C1)N2c1nc(OCC2(CN3CC[C@H](F)C3)CC2)nc2c(F)c(-c3ncc(F)c4sc(N)c(C#N)c34)c3c(c12)COC3` [Example 7, 2-Amino-7-fluoro-4-(5-fluoro-3-((1-(((S)-3-fluoropyrrolidin-1-yl)methyl)cyclopropyl)meth-oxy)-1-(3-((R)-2-hydroxypropyl)-3,8-diazabicyclo[3.2.1]octan-8-yl)-7,9-dihydrofuro[3,4-f]quinazolin-6-yl)thieno[3,2-c]pyridine-3-carbonitrile] was tested, and the “selective inhibition preference for KRas G12D mutant over KRas wild-type” value (KRas G12D mutant) was “greater than 10 fold”.
With `C[C@@H](O)CN1CC2CCC(C1)N2c1nc(OCC2(CN3CCN(C)CC3)CC2)nc2c(F)c(-c3ncc(F)c4sc(N)c(C#N)c34)c3c(c12)COC3` [Example 6, 2-Amino-7-fluoro-4-(5-fluoro-1-(3-((R)-2-hydroxypropyl)-3,8-diazabicyclo[3.2.1]octan-8-yl)-3-((1-((4-methylpiperazin-1-yl)methyl)cyclopropyl)meth-oxy)-7,9-dihydrofuro[3,4-f]quinazolin-6-yl)thieno[3,2-c]pyridine-3-carbonitrile] the “selective inhibition preference for KRas G12D mutant over KRas wild-type” value (KRas G12D mutant) was “greater than 10 fold”.
With `C[C@@H](O)CN1CC2CCC(C1)N2c1nc(OCC2(CN3CCOCC3)CC2)nc2c(F)c(-c3ncc(F)c4sc(N)c(C#N)c34)c3c(c12)COC3` [Example 1, 2-Amino-7-fluoro-4-(5-fluoro-1-(3-((R)-2-hydroxypropyl)-3,8-diazabicyclo[3.2.1]octan-8-yl)-3-((1-(morpholinomethyl)cyclopropyl)methoxy)-7,9-dihydrofuro[3,4-f]quinazolin-6-yl)thieno[3,2-c]pyridine-3-carbonitrile] the “selective inhibition preference for KRas G12D mutant over KRas wild-type” value (KRas G12D mutant) was “greater than 10 fold”.
With `C[C@@H](O)CN1CC2CCC(C1)N2c1nc(OCC2(CN3CC(CF)C3)CC2)nc2c(F)c(-c3ncc(F)c4sc(N)c(C#N)c34)c3c(c12)COC3` [Example 15, 2-Amino-7-fluoro-4-(5-fluoro-3-((1-((3-(fluoromethyl)azetidin-1-yl)methyl)cyclopropyl)meth-oxy)-1-(3-((R)-2-hdyroxypropyl)-3,8-diazabicyclo[3.2.1]octan-8-yl)-7,9-dihydrofuro[3,4-f]quinazolin-6-yl)thieno[3,2-c]pyridine-3-carbonitrile] the “selective inhibition preference for KRas G12D mutant over KRas wild-type” value (KRas G12D mutant) was “greater than 10 fold”.
For `[2H]C([2H])(Oc1nc(N2C3CCC2CN(C[C@@H](C)O)C3)c2c3c(c(-c4ncc(F)c5sc(N)c(C#N)c45)c(F)c2n1)COC3)C1(C([2H])([2H])N2CCOCC2)CC1` [Example 37, 2-Amino-7-fluoro-4-(5-fluoro-1-(3-((R)-2-hydroxypropyl)-3,8-diazabicyclo[3.2.1]octan-8-yl)-3-((1-(morpholinomethyl-d2)cyclopropyl)methoxy-d2)-7,9-dihydrofuro[3,4-f]quinazolin-6-yl)thieno[3,2-c]pyridine-3-carbonitrile], the “selective inhibition preference for KRas G12D mutant over KRas wild-type” value (KRas G12D mutant) was “greater than 10 fold”.
For `C[C@@H](O)CN1CC2CCC(C1)N2c1nc(OCC2(CN3CCC(F)(F)CC3)CC2)nc2c(F)c(-c3ncc(F)c4sc(N)c(C#N)c34)c3c(c12)COC3` [Example 11, 2-Amino-4-(3-((1-((4,4-difluoropiperidin-1-yl)methyl)cyclopropyl)meth-oxy)-5-fluoro-1-(3-((R)-2-hydroxypropyl)-3,8-diazabicyclo[3.2.1]octan-8-yl)-7,9-dihydrofuro[3,4-f]quinazolin-6-yl)-7-fluorothieno[3,2-c]pyridine-3-carbonitrile], the “selective inhibition preference for KRas G12D mutant over KRas wild-type” value (KRas G12D mutant) was “greater than 10 fold”.
For `CC(=O)N1CCN(CC2(COc3nc(N4C5CCC4CN(C[C@@H](C)O)C5)c4c5c(c(-c6ncc(F)c7sc(N)c(C#N)c67)c(F)c4n3)COC5)CC2)CC1` [Example 18, 4-(3-((1-((4-Acetylpiperazin-1-yl)methyl)cyclopropyl)meth-oxy)-5-fluoro-1-(3-((R)-2-hydroxypropyl)-3,8-diazabicyclo[3.2.1]octan-8-yl)-7,9-dihydrofuro[3,4-f]quinazolin-6-yl)-2-amino-7-fluorothieno[3,2-c]pyridine-3-carbonitrile], the “selective inhibition preference for KRas G12D mutant over KRas wild-type” value (KRas G12D mutant) was “greater than 10 fold”.
For `C[C@@H](O)CN1CC2CCC(C1)N2c1nc(OCC2(CN3CCOC[C@@H]3C)CC2)nc2c(F)c(-c3ncc(F)c4sc(N)c(C#N)c34)c3c(c12)COC3` [Example 10A, 2-Amino-7-fluoro-4-(5-fluoro-1-(3-((R)-2-hydroxypropyl)-3,8-diazabicyclo[3.2.1]octan-8-yl)-3-((1-(((S)-3-methylmorpholino)methyl)cyclopropyl)methoxy)-7,9-dihydrofuro[3,4-f]quinazolin-6-yl)thieno[3,2-c]pyridine-3-carbonitrile], the “selective inhibition preference for KRas G12D mutant over KRas wild-type” value (KRas G12D mutant) was “greater than 10 fold”.
For `COC1CN(CC2(COc3nc(N4C5CCC4CN(C[C@@H](C)O)C5)c4c5c(c(-c6ncc(F)c7sc(N)c(C#N)c67)c(F)c4n3)COC5)CC2)C1` [Example 14, 2-Amino-7-fluoro-4-(5-fluoro-1-(3-((R)-2-hydroxypropyl)-3,8-diazabicyclo[3.2.1]octan-8-yl)-3-((1-((3-methoxyazetidin-1-yl)methyl)cyclopropyl)meth-oxy)-7,9-dihydrofuro[3,4-f]quinazolin-6-yl)thieno[3,2-c]pyridine-3-carbonitrile], the “selective inhibition preference for KRas G12D mutant over KRas wild-type” value (KRas G12D mutant) was “greater than 10 fold”.
In the case of `C[C@@H]1COCCN1CC1(COc2nc(N3C4CCC3CN(C[C@@H](C)O)C4)c3c4c(c(-c5ncc(F)c6sc(N)c(C#N)c56)c(F)c3n2)COC4)CC1` [Example 16, 2-Amino-7-fluoro-4-(5-fluoro-1-(3-((R)-2-hydroxypropyl)-3,8-diazabicyclo[3.2.1]octan-8-yl)-3-((1-(((R)-3-methylmorpholino)methyl)cyclopropyl)methoxy)-7,9-dihydrofuro[3,4-f]quinazolin-6-yl)thieno[3,2-c]pyridine-3-carbonitrile], the “selective inhibition preference for KRas G12D mutant over KRas wild-type” value (KRas G12D mutant) is reported as “greater than 10 fold”.
